# According to PubChem BioAssay AID1347075 (National Center for Advancing Translational Sciences (NCATS), 2019):
# “And” between values parts separate entries of the source, which are not always exact repeats. Identical values can stand only once. The campaign covered roughly 400,000 compounds. About 5,500 (1.4%) were called active. Inconclusive means that the source gave no clear call. Such entries were picked first, then a sample of the others. Calls follow the shape of the dose curve; as a rule, active = well fitted cell-killing curve with a large enough effect; inconclusive = small, poorly fitted or top-dose-only effect, or effect the other way; inactive = flat fitted curve, though single readings scatter. Potencies beside an inconclusive call are fits to weak or partial responses and may not hold up.
# Assay: qHTS assay for MDR1-selective chemotherapeutics: Primary screen using the parental adenocarcinoma cell KB-3-1; also: nearly all actives have a fitted effect of over 60% in size
# Conditions: KB-3-1 viability, CellTiter-Glo ATP luminescence, 72 h; activity change, negative = cytotoxic: at 46.1 µM (top of the series)
# Outline: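 Viability of parental KB-3-1 cells, measured by CellTiter-Glo luminescence, followed a 72 h incubation at 37 °C with pinned compounds in phenol-red-free DMEM containing 10% FBS.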
# % is scaled to controls: 0 for no effect and ±100 for the full control effect; potency is read from the fitted curve at half-maximal effect.
SMILES,Potency,"activity change, negative = cytotoxic"
CCOC(=O)C1(Cc2cccc(OC)c2)CCN(Cc2ccc(C)s2)CC1,inactive,–
Cc1nc(Nc2ccncc2)c2oc3ccccc3c2n1,"inconclusive: 32.6 µM [cytotoxic, single point]",–
COc1nc(Nc2ccc3c(c2)OCO3)nc(OC)n1,"inconclusive: 14.6 µM [cytotoxic, partial curve]",–
O=C(N/N=C/c1ccsc1)c1cc(-c2ccncc2)nc2ccccc12,active: 2.59 µM,–
C/C=C/C(=O)Nc1cccc(C2=NOC3(C2)C[C@@H](C(N)=O)N(C(=O)C(c2ccccc2)c2ccccc2)C3)c1 (some centres undefined),inactive,–
CNc1ccc(SC#N)cc1,"inconclusive: 29.1 µM [cytotoxic, single point]",–
COc1ccc(S(=O)(=O)N2CCN(C(=O)c3cccc(S(=O)(=O)N4CCCC4)c3)CC2)cc1,"inconclusive: 0.184 µM [rising, full curve]",–
COCCNC(=S)N/N=C(\C)c1cc2ccccc2o1,"inconclusive: 20.6 µM [cytotoxic, single point]",–
CN1CCC(N(C)S(=O)(=O)c2ccc(Cl)cc2)CC1,"inconclusive: 0.058 µM [rising, full curve]",–
CC(/C=C/c1ccco1)=N\NC(=O)CNc1ccc2ccccc2c1,inactive,–
CC(C)n1c(NCc2nc3ccccc3n2C)nc2ccccc21,inactive,–
O=S(=O)(c1ccc(Br)s1)N1CCNCC1,"inconclusive: 2.91 µM [cytotoxic, partial curve, poor fit]",–
N#Cc1c(-c2cccs2)cc(-c2cccnc2)nc1N,"inconclusive: 29.1 µM [rising, single point]",–
CN(C)CCNC(=O)c1ccc(Sc2ccc(Br)cc2)c([N+](=O)[O-])c1,"inconclusive: 29.1 µM [cytotoxic, single point]",–
COc1ccc(-c2nc(C#N)c(N3CCCCC3)o2)cc1,inactive,–
COCc1ccc(-c2c(-c3ccsc3)oc(=O)c3cc(OC)c(OC)cc23)cc1,"inconclusive: 29.1 µM [cytotoxic, single point]",–
CC(/C=N/n1cnnc1)=C\c1ccco1,"inconclusive: 11.6 µM [cytotoxic, partial curve, poor fit]",–
Cc1ccc(CN2C(=O)NC(Cc3c[nH]c4ccccc34)C2=O)cc1 (centres undefined),inactive,–
CCOC(=O)C1(CCOC)CCN(Cc2cccc(OCc3ccccc3)c2)CC1,"inconclusive: 25.9 µM [cytotoxic, partial curve, poor fit]",–
CCCCC[C@H](O)/C=C/[C@@H]1[C@@H](C/C=C\CCCC(=O)OC)[C@@H](O)C[C@H]1O,inactive,–
CCSc1nnc(NC(=O)COc2ccc(Cl)cc2)s1,"inconclusive: 3.26 µM [rising, partial curve]",–
CN(NS(=O)(=O)c1ccc(Br)cc1)c1nc(C(F)(F)F)nc2ccccc12,"inconclusive: 29.1 µM [cytotoxic, single point]",–
Cc1ccc(NC(=O)C2CCC(C(C)(C)C)CC2)cc1S(=O)(=O)N1CCOCC1 (centres undefined),"inconclusive: 29.1 µM [cytotoxic, single point]",–

SMILES,Potency,"activity change, negative = cytotoxic"
COc1ccc(CNC(=O)C(=O)Nc2c3c(nn2-c2ccccc2)CSC3)cc1,"inconclusive: 16.4 µM [cytotoxic, partial curve]",–
COc1ccccc1CCC(=O)Nc1ccc2c(c1)c(=O)n(C)n2-c1cccs1,active: 3.26 µM,–
O=[N+]([O-])c1ccc(N2CCN(CCO)CC2)cc1NCc1ccco1,inactive,–
OCc1ccccc1-c1ccc2nncn2c1,inactive,–
COc1cc(Cn2c3ccc(NC(=O)CC(C)c4ccccc4)cc3c(=O)n2C)ccc1F (centres undefined),active: 16.4 µM,–
Cc1ccc(-c2cc(C(=O)N3CCCc4ccccc43)c3ccccc3n2)cc1,"inconclusive: 18.4 µM [cytotoxic, single point]",–
Cc1cccc(N2CCN(C(=O)CCS(=O)(=O)c3ccc4c(c3)NC(=O)C(C)S4)CC2)c1C (centres undefined),"inconclusive: 16.4 µM [cytotoxic, partial curve]",–
COc1cccc(CN(C)CCCn2cnc3c(SC)ncnc32)c1,"inconclusive: 16.4 µM [rising, partial curve, poor fit]",–
Cc1ccc(-c2noc(CN3CCCCC3)n2)cc1,inactive,–
CC(Oc1ccc(-c2nccc(-c3ccccn3)n2)cc1)C(=O)NN (centres undefined),"inconclusive: 20.6 µM [rising, single point]",–
Cc1cc(=O)oc2cc(OCC(=O)NCc3ccco3)ccc12,"inconclusive: 25.9 µM [rising, single point]",–
C(=Nc1ccc(/C=C/c2ccnc3ccccc23)cc1)c1cccs1,"inconclusive: 0.92 µM [rising, full curve, poor fit]",–
CCCCOc1ccc(C(=O)NNC(=S)NC(=O)CC)cc1,"inconclusive: 25.9 µM [cytotoxic, partial curve, poor fit]",–
O=C(NNC(=O)c1cc(S(=O)(=O)N2CCOCC2)c(Cl)cc1Cl)c1ccccc1F,"inconclusive: 25.9 µM [rising, single point]",–
COc1ccc(C(CCN(Cc2ccc(OC)c(OC)c2)C(=O)CCl)c2ccccc2)cc1 (centres undefined),"inconclusive: 29.1 µM [cytotoxic, single point]",–
CCOc1ccccc1N1CCN(C(=O)c2ccc3nc(N)sc3c2)CC1,inactive,–
COC(=O)c1c(NC(=O)c2ccco2)sc2c1CC(C)(C)NC2(C)C,"inconclusive: 29.1 µM [rising, partial curve]",–
CN(C)C1(CNC(=O)COc2ccc([N+](=O)[O-])cc2)CCCCC1,inactive,–
CCN(C(=O)Cn1c(=O)n(CCCS(=O)(=O)C2CCCCC2)c(=O)c2ccccc21)c1cccc(C)c1,inactive,–
Cc1c(Cc2ccc3c(c2)OCO3)sc(NC(=O)c2ccc3ccccc3c2)c1C(N)=O,"inconclusive: 32.6 µM [cytotoxic, single point]",–
CCN(c1cccc(C(F)(F)F)c1)S(=O)(=O)c1ccc2c(c1)CCN2C(=O)C1CC1,active: 11.2 µM,–
CN(C)/C=N/c1ncnc2c1cnn2-c1ccc(C(F)(F)F)cn1,"inconclusive: 14.6 µM [rising, partial curve]",–
CCCC(=O)Nc1ccc(-c2csc(N/N=C\c3ccncc3)n2)cc1,"inconclusive: 29.1 µM [cytotoxic, single point]",–

SMILES,Potency,"activity change, negative = cytotoxic"
COc1ccc(OC)c(C(C)NC(=O)C(C)n2cc([N+](=O)[O-])cn2)c1 (centres undefined),inactive,–
O=C(O)c1cc([N+](=O)[O-])cc([N+](=O)[O-])c1N1CCN(c2cccc(C(F)(F)F)c2)CC1,–,inconclusive: 1.35%
Cc1ccc(N/C(=N/S(=O)(=O)c2cccs2)c2ccccc2)c(C)c1,"inconclusive: 23.1 µM [cytotoxic, single point]",–
Cc1cccc(OCC(=O)Nc2cc(NC(=O)COc3cccc(C)c3C)cc(C(=O)O)c2)c1C,inactive,–
CN1CCN(c2ccc(CNC(=O)C3Cc4c(-c5ccc6c(c5)OCO6)ccnc4O3)cc2)CC1 (centres undefined),inactive,–
O=C(Nc1cccc(NC(=O)c2ccc([N+](=O)[O-])o2)c1)c1ccco1,"inconclusive: 16.4 µM [cytotoxic, single point]",–
CCCCNC(=O)c1cn(-c2ccc(OCC)cc2)c(=O)c2cc(OC)c(OC)cc12,inactive,–
CC(=O)N1CCc2c(sc3nc(SCC(C)C)n(-c4ccc(C)c(Cl)c4)c(=O)c23)C1,inactive,–
CCOC(=O)N1CCN(S(=O)(=O)c2ccc(C(=O)NNc3nc4cc(C)cc(C)c4s3)cc2)CC1,active: 4.11 µM,–
O=C(Nc1ccc(Cl)cc1)NC1CCCCNC1=O (centres undefined),inactive,–
CC(C)(C)c1ccc(/C=N/NC(=O)Cc2c[nH]c3ccccc23)cc1,"inconclusive: 29.1 µM [cytotoxic, single point]",–
Cc1ccc(-c2nnc(Nc3ccc(OC(F)(F)Cl)cc3)c3ccccc23)cc1S(=O)(=O)NC(C)(C)CO,"inconclusive: 20.6 µM [cytotoxic, partial curve]",–
Cc1cccc(/N=C/c2c(O)n(Cc3ccc4c(c3)OCO4)c(=O)c3ccccc23)n1,"inconclusive: 32.6 µM [rising, single point]",–
Cc1nc2scc(C)n2c(=O)c1S(=O)(=O)Nc1ccc(N2CCN(S(C)(=O)=O)CC2)cc1,"inconclusive: 18.4 µM [cytotoxic, partial curve, poor fit]",–
Cc1ccc(NC(=O)CSc2nc3ccccc3nc2N2CCOCC2)c(C)c1,"inconclusive: 25.9 µM [cytotoxic, single point]",–
CC(=O)N1CCc2cc(S(=O)(=O)NCCC(=O)N3CCN(Cc4ccccc4)CC3)ccc21,"inconclusive: 18.4 µM [cytotoxic, partial curve]",–
COc1ccc(NS(=O)(=O)c2cccc(C(=O)N3CCC3)c2)cc1,inactive,–
COC(=O)c1c(NC(=O)c2ccco2)sc2c1CCC2,inactive,–
Nc1ccc(NC(=O)c2cccc(C(=O)Nc3ccc(N)cc3Cl)c2)c(Cl)c1,"inconclusive: 23.1 µM [cytotoxic, single point] and inconclusive: 29.1 µM [cytotoxic, single point]",–
Cc1cccc(NC(=O)CN2CCN(CC(=O)Nc3cccc(C)c3)CC2)c1,inactive,–
COc1ccc(CCNC(=O)COC(=O)c2sc(C)nc2C)cc1,–,inconclusive: -0.73%
Cc1ccc(NC(=O)C2(NC(=O)c3cccc(N4C(=O)CSC4c4ccccc4)c3)CCCCC2)cc1 (centres undefined),"inconclusive: 29.1 µM [cytotoxic, single point]",–
Cn1nc(-c2ccccn2)nc2c(=O)n(C)c(=O)nc1-2,"inconclusive: 0.731 µM [cytotoxic, full curve, poor fit]",–
